This assay concerns the target T1, Mpk1-HA3 (Saccharomyces cerevisiae) (UniProt Q00772).
T1 sequence: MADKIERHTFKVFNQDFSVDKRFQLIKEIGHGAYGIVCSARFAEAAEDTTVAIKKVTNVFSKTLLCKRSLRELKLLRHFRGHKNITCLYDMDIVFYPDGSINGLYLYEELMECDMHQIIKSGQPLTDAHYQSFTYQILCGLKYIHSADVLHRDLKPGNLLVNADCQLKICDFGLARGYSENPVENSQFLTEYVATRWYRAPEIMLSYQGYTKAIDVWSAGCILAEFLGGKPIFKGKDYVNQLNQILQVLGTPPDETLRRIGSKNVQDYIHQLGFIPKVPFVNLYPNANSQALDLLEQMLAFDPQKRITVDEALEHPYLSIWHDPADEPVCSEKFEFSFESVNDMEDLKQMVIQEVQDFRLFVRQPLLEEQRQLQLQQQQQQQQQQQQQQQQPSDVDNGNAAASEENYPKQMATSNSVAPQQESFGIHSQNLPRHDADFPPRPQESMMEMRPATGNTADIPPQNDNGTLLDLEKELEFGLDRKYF
Description: co-IP; cells untreated (0 min) or rapamycin-treated (20 and 40 min), fixed 20 min with 1% formaldehyde and quenched with 0.3 M glycine; lysis buffer 50 mM TRIS pH 7.5, 1 mM EDTA, 150 mM NaCl, 0.5% NP40; Mpk1-HA3 immunoprecipitated with anti-HA magnetic matrix, Sic1-myc13 detected with anti-c-Myc; empty vector as control.

Amino acid sequences for entries named in this document (tags omitted).
UniProt P38634: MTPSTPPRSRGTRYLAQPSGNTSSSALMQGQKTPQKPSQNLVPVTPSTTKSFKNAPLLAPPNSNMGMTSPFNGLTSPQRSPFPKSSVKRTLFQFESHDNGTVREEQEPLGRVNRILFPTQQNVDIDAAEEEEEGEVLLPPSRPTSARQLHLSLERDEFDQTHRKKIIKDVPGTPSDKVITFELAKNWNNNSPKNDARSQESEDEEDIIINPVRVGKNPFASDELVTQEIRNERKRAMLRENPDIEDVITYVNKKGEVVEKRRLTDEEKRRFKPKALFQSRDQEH

No constants are given. Whether binding was seen depends on the method and setting. Binding seen in cells or lysates may run through a third protein. Some results given as binding are weak or reduced against the parent protein; the word gives no strength. Sequences can lack the tags named with a protein.

With Sic1-myc13 (from UniProt P38634 1-284), the binding entry is “binds”.

The values are drawn from paper PMC4579850.
